From patent US8877683B2, “Substituted pyridines having herbicidal activity” (BASF SE, priority 2010, dated 2014)
Some entries share one result that the patent states for a list of compounds.

Tests used:
Experiment in all cases: greenhouse post-emergence herbicidal test
Type in all cases: in vivo
Conditions in all cases: application rate 0.5 kg/ha
[1] = system: AMARE (Amaranthus retroflexus)
[2] = system: ECHCG (Echinocloa crus-galli)
From the text: (§1) The culture containers used were plastic flowerpots containing loamy sand with approximately 3.0% of humus as the substrate. The seeds of the test plants were sown separately for each species.
(§2) For the post-emergence treatment, the test plants were first grown to a height of 3 to 15 cm, depending on the plant habit, and only then treated with the active ingredients which had been suspended or emulsified in water. For this purpose, the test plants were either sown directly and grown in the same containers, or they were first grown separately as seedlings and transplanted into the test containers a few days prior to treatment.
(§3) Depending on the species, the plants were kept at 10-25° C. or 20-35° C. The test period extended over 2 to 4 weeks. During this time, the plants were tended, and their response to the individual treatments was evaluated.
(§4) Evaluation was carried out using a scale from 0 to 100. 100 means no emergence of the plants, or complete destruction of at least the aerial moieties, and 0 means no damage, or normal course of growth. A good herbicidal activity is given at values of at least 70 and a very good herbicidal activity is given at values of at least 85. […]

[3] = system: CHEAL (Chenopodium album)
From the text: as §1, §2, §3, §4

For `O=S1(=O)Cc2cccnc2C(O)=C1c1ccccc1C(F)(F)F` [I-2, 6,6-Dioxo-7-(2-trifluoromethyl-phenyl)-5,6-dihydro-thiopyrano[4,3-b]pyridin-8-ol], the “herbicidal activity against AMARE” value [1] was “very good (a very good herbicidal activity is given at values of at least 85)”, the “herbicidal activity against ECHGG” value [2] was “very good (a very good herbicidal activity is given at values of at least 85)” and the “herbicidal activity against CHEAL” value [3] was “very good (a very good herbicidal activity is given at values of at least 85)”.
